Paper PMC9747930
Results are given in words; binding and its absence hold for the method and conditions named. Binding seen in cells or lysates may run through a third protein. Here binding means that the protein was enriched with, or labelled near, the bait; the list need not be complete.

Protein sequences, listed by entry. Tags and fused reporters are not part of them.
UniProt Q155P7: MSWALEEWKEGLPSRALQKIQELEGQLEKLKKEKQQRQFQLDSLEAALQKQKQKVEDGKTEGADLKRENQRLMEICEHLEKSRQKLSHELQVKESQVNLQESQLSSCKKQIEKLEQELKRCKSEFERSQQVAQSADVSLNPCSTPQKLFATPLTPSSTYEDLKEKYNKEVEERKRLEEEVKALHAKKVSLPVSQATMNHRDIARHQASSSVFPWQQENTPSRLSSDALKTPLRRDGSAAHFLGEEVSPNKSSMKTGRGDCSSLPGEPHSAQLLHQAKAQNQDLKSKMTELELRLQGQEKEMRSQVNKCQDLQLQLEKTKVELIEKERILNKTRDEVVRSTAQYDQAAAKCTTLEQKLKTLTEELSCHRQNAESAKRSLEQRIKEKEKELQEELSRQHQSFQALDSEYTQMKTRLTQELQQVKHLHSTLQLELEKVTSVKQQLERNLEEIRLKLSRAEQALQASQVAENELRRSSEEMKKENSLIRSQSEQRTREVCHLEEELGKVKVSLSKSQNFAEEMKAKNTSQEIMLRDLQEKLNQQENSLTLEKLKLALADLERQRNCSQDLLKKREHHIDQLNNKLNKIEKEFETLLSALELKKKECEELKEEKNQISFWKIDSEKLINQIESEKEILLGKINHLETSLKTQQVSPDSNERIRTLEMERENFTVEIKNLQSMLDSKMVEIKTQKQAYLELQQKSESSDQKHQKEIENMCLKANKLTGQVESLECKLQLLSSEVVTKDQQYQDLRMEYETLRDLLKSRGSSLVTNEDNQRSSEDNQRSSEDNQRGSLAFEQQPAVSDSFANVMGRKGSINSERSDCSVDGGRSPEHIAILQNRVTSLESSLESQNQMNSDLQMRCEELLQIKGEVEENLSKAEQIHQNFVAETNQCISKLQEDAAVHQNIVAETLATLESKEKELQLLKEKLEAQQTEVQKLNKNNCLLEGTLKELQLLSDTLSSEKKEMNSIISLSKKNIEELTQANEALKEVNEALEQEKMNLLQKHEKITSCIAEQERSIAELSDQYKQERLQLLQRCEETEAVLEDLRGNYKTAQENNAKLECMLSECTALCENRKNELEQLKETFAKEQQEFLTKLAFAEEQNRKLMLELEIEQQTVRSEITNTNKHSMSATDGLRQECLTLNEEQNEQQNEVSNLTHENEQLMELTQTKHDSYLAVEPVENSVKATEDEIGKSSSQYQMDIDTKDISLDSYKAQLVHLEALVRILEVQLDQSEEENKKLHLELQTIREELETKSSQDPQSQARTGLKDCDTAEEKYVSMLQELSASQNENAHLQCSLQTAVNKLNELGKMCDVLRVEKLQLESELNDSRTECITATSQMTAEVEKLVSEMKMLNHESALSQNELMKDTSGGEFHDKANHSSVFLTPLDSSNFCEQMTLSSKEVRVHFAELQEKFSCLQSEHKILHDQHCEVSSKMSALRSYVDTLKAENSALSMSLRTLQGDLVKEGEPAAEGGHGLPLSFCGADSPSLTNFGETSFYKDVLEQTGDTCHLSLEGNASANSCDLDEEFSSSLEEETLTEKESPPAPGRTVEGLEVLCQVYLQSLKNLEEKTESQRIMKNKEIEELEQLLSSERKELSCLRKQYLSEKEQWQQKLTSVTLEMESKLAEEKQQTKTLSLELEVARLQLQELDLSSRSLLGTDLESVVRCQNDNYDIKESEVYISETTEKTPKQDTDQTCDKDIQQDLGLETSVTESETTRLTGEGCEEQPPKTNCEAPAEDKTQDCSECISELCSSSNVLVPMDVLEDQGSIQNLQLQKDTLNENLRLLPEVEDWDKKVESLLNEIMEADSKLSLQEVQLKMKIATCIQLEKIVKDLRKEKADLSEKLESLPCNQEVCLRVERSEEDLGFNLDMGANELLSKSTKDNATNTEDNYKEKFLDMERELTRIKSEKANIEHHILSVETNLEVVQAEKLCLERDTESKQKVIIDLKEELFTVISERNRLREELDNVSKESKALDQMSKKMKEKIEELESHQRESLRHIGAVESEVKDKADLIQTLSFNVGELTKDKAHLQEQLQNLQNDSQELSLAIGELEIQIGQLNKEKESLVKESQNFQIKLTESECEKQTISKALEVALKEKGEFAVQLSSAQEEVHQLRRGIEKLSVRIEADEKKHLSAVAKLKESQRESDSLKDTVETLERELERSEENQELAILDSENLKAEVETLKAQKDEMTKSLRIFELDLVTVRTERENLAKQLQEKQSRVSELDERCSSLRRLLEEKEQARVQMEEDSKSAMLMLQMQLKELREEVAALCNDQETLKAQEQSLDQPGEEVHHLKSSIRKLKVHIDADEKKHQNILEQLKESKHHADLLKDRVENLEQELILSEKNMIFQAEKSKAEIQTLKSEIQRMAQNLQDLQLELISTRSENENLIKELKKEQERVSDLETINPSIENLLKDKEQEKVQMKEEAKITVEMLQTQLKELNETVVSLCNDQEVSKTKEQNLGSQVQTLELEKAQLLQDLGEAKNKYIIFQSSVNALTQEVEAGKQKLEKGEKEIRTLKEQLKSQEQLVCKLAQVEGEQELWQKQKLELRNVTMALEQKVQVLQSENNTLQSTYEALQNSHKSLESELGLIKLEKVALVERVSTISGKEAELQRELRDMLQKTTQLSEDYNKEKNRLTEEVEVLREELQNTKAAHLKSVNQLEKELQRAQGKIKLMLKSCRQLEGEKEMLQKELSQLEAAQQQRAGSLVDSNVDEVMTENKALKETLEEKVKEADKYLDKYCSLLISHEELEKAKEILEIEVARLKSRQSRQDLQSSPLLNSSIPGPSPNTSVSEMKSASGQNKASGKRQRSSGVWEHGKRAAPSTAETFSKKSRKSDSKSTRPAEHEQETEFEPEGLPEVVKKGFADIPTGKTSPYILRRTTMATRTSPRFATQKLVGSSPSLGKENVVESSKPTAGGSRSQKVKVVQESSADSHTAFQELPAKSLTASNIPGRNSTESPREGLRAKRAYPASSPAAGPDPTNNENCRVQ
UniProt Q8K1M6: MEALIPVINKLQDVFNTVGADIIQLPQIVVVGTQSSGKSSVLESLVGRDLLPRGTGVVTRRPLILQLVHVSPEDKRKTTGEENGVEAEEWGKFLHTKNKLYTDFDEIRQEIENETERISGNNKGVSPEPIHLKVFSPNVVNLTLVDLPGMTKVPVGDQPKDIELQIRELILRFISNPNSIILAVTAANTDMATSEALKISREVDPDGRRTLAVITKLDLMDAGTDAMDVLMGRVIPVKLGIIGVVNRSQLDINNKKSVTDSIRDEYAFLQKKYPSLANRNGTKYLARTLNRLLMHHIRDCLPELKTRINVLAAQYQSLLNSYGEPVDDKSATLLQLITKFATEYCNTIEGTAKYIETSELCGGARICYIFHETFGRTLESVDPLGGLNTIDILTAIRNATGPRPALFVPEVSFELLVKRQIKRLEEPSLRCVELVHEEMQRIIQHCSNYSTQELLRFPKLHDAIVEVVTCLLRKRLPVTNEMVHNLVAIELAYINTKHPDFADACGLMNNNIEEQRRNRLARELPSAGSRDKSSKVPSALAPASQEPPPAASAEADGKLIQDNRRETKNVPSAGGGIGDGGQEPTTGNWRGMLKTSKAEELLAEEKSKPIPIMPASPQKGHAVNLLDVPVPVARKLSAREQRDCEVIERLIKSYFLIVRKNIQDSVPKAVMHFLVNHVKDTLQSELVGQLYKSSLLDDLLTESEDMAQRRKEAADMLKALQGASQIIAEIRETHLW

Molecular target: Centromere protein F (CENP-F) (mouse (endogenous in oocytes)) (UniProt Q155P7)
Assay: affinity purification with mass spectrometry; CENP-F immunoprecipitation from 1000 GV, MI and MII stage mouse oocytes; eluates on SDS-PAGE, silver staining, bands common to each stage analysed with MALDI/MS

Dynamin-related protein 1 (DRP1) (from UniProt Q8K1M6 1-736)
binding: binds
